Results from patent US10865191B2, “Heterocyclic compounds useful as modulators of TNF alpha” (BRISTOL-MYERS SQUIBB COMPANY, priority 2015, dated 2020).
Where two headings read alike, the source gives them in different places. Some of these results come from one statement about several compounds together.

By UniProt entry, the sequences of proteins in these tests, tags left out. Residues count along the entry.
UniProt P01375, 77-233 limits assumed: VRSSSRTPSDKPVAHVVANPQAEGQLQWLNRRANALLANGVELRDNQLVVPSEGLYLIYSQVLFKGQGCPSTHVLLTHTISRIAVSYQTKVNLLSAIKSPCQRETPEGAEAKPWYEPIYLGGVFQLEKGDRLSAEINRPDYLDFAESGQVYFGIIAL

Target: TNFα (Homo sapiens, UniProt P01375)
Test: TNF induced HEK-Blue assay (NF-kB-driven secreted alkaline phosphatase reporter)
Type: cell-based
Procedure, shortened: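 HEK-Blue-CD40L cells (NF-kB-driven SEAP reporter), 20,000/well, added after 30 min pre-incubation of compound (0.004–25 μM final) with TNFα 0.5 ng/mL final at 37 °C; 18 h incubation. SEAP read with QUANTI-Blue at 620 nm; IC50 from 4-parameter logistic fit, normalized to unstimulated and stimulated DMSO controls.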

[1] = TNFα 0.5 ng/mL, HEK-Blue-CD40L cells, 18 h; read-out: IC50 values measured in the TNF induced HEK-Blue assay
[2] = read-out: IC50 values measured in the TNF induced HEK-Blue assay; TNFα 0.5 ng/mL, HEK-Blue-CD40L cells, 18 h

Row | SMILES | IC50 [1] | IC50 [2]
1 | Cc1nc2ccc(-c3cnc(C(C)(C)O)nc3)cc2c(N[C@H](C)c2cc(-c3nnn[nH]3)ccc2F)c1Cl [Example 412, (R)-2-(5-(3-chloro-4-((1-(2-fluoro-5-(1H-tetrazol-5-yl)phenyl)ethyl)amino)-2-methylquinolin-6-yl)pyrimidin-2-yl)propan-2-ol] | ≤ 25 µM | 
2 | C[C@@H](Nc1c(Cl)cnc2ccccc12)c1ccccc1C(F)(F)F [Example 463, 3-chloro-N-(1-(2-(trifluoromethyl)phenyl)ethyl)quinolin-4-amine] | ≤ 25 µM | 
3 | CC(C)(O)c1ncc(-c2nc3c(N[C@H](c4cc(C(N)=O)ccc4F)C(F)F)c(Cl)cnc3cc2F)cn1 [Example 487, (R)-3-(1-((3-chloro-7-fluoro-6-(2-(2-hydroxypropan-2-yl)pyrimidin-5-yl)-1,5-naphthyridin-4-yl)amino)-2,2-difluoroethyl)-4-fluorobenzamide] | ≤ 25 µM | 
4 | CC(Nc1c(Cl)cnc2c(Cl)cc(-c3cnn(C)c3)cc12)c1ccccc1F (racemic) [Example 20, 3,8-dichloro-N-(1-(2-fluorophenyl)ethyl)-6-(1-methyl-1H-pyrazol-4-yl)quinolin-4-amine] | ≤ 25 µM | 
5 | CC(C)(O)c1ncc(-c2ccc3ncc(Cl)c(NC(CCF)c4ccccc4F)c3c2)cn1 (racemic) [Example 230, 2-(5-(3-chloro-4-((3-fluoro-1-(2-fluorophenyl)propyl)amino)quinolin-6-yl)pyrimidin-2-yl) propan-2-ol] | ≤ 25 µM | 
6 | CC(Nc1c(Cl)cnc2c(F)cc(-c3cnc(C(C)(C)O)nc3)cc12)c1cc(Br)ccc1F (single isomer, unassigned) [Example 612, 2-(5-(4-((1-(5-bromo-2-fluorophenyl)ethyl)amino)-3-chloro-8-fluoroquinolin-6-yl)pyrimidin-2-yl)propan-2-ol] | ≤ 25 µM | 
7 | CC(Nc1c(Cl)cnc2ncc(-c3ccc(C(C)(C)O)cc3)cc12)c1ccccc1F (racemic) [Example 231, 2-(4-(6-chloro-5-((1-(2-fluorophenyl)ethyl)amino)-1,8-naphthyridin-3-yl)phenyl)propan-2-ol] | ≤ 25 µM | 
8 | C[C@@H](Nc1c(Cl)cnc2ccc(-c3cnc(C(C)(C)O)nc3)cc12)c1cc(C2=CCNCC2)ccc1F [Example 338, (R)-2-(5-(3-chloro-4-((1-(2-fluoro-5-(1,2,3,6-tetrahydropyridin-4-yl)phenyl)ethyl)amino)quinolin-6-yl)pyrimidin-2-yl)propan-2-ol] | ≤ 25 µM | 
9 | CC(Nc1c(Cl)cnc2cc(F)c(-c3cnc(C(O)CN4CCOCC4)cn3)cc12)c1ccccc1F (stereo not shown) [Example 275, 1-(5-(3-chloro-7-fluoro-4-((1-(2-fluorophenyl)ethyl)amino)quinolin-6-yl)pyrazin-2-yl)-2-morpholinoethan-1-ol] | ≤ 25 µM | 
10 | CC(C)C(Nc1c(Cl)cnc2ccc(-c3cnc(C(C)(C)O)nc3)cc12)c1ccccc1F (stereo not shown) [Example 189, 2-(5-(3-chloro-4-((1-(2-fluorophenyl)-2-methylpropyl)amino)quinolin-6-yl)pyrimidin-2-yl)propan-2-ol] |  | ≤ 25 µM
11 | O=C(O)CN1CCN(c2ncc(-c3ccc4ncc(Cl)c(N[C@@H](c5ccccc5F)C(F)F)c4c3)cn2)CC1=O [Example 76, (S)-2-(4-(5-(3-chloro-4-((2,2-difluoro-1-(2-fluorophenyl)ethyl)amino)quinolin-6-yl)pyrimidin-2-yl)-2-oxopiperazin-1-yl)acetic acid] | ≤ 25 µM | 
12 | Cc1nc2cc(F)c(-c3cnc(C(C)(C)O)nc3)nc2c(N[C@H](C)c2cc(C(N)=O)ccc2F)c1Cl [Example 584, (R)-3-(1-((3-chloro-7-fluoro-6-(2-(2-hydroxypropan-2-yl)pyrimidin-5-yl)-2-methyl-1,5-naphthyridin-4-yl)amino)ethyl)-4-fluorobenzamide] | ≤ 25 µM | 
13 | Cc1nc2ccc(-c3cnc(C(C)(C)O)nc3)cc2c(N[C@@H](c2cc(Br)ccc2F)C(F)F)c1Cl [Example 320, (S)-2-(5-(4-((1-(5-bromo-2-fluorophenyl)-2,2-difluoroethyl)amino)-3-chloro-2-methylquinolin-6-yl)pyrimidin-2-yl)propan-2-ol] | ≤ 25 µM | 
14 | CCc1ccc(-c2ccc(F)c([C@@H](C)Nc3c(Cl)cnc4ccccc34)c2)cn1 [Example 508, (R)-3-chloro-N-(1-(5-(6-ethylpyridin-3-yl)-2-fluorophenyl)ethyl)quinolin-4-amine] | ≤ 25 µM | 
15 | CC(Nc1c(Cl)cnc2cc(F)c(-c3cnc(N4C[C@H]5CC[C@@H](C4)C5C(=O)O)nc3)cc12)c1ccccc1F (single isomer, unassigned) [Example 611] | ≤ 25 µM | 
16 | C[C@@H](Nc1c(Cl)cnc2ccc(-c3cnc(N4CCS(=O)(=O)CC4)nc3)cc12)c1ccccc1F [Example 225, (R)-4-(5-(3-chloro-4-((1-(2-fluorophenyl)ethyl)amino)quinolin-6-yl)pyrimidin-2-yl)thiomorpholine 1,1-dioxide] |  | ≤ 25 µM

Row | SMILES | IC50 [1] | IC50 [2]
17 | Cc1nc2cc(F)c(-c3cnc(C(C)(C)O)nc3)nc2c(N[C@@H](c2cc(C(N)=O)ccc2F)C(F)F)c1Cl [Example 497, (S)-3-(1-((3-chloro-7-fluoro-6-(2-(2-hydroxypropan-2-yl)pyrimidin-5-yl)-2-methyl-1,5-naphthyridin-4-yl)amino)-2,2-difluoroethyl)-4-fluorobenzamide] | ≤ 25 µM | 
18 | Cc1nc2ccc(-c3ccc(C(C)(C)O)cc3)cc2c(NC(C)c2ccsc2)c1Cl (stereo not shown) [Example 503, 2-(4-(3-chloro-2-methyl-4-((1-(thiophen-3-yl)ethyl)amino)quinolin-6-yl)phenyl)propan-2-ol] | ≤ 25 µM | 
19 | COC(=O)CCS(=O)(=O)c1ccc(F)c([C@@H](C)Nc2c(Cl)cnc3ccc(-c4cnc(C(C)(C)O)nc4)cc23)c1 [Example 427, Methyl (R)-3-((3-(1-((3-chloro-6-(2-(2-hydroxypropan-2-yl)pyrimidin-5-yl)quinolin-4-yl)amino)ethyl)-4-fluorophenyl)sulfonyl)propanoate] | ≤ 25 µM | 
20 | C[C@@H](Nc1c(Cl)cnc2ccc(-c3cnc(C(C)(C)O)nc3)cc12)c1cccc(-n2cccn2)c1 [Example 368, (R)-2-(5-(4-((1-(3-(1H-pyrazol-1-yl)phenyl)ethyl)amino)-3-chloroquinolin-6-yl)pyrimidin-2-yl)propan-2-ol] | ≤ 25 µM | 
21 | Cc1nc2ccc(-c3cnc(C(C)(C)O)nc3)cc2c(N[C@H](C)c2cc(CCO)ccc2F)c1Cl [Example 323, (R)-2-(5-(3-chloro-4-((1-(2-fluoro-5-(2-hydroxyethyl)phenyl)ethyl)amino)-2-methylquinolin-6-yl)pyrimidin-2-yl)propan-2-ol] | ≤ 25 µM | 
22 | Cc1nc2ccc(-c3cnc(C(C)(C)O)nc3)cc2c(N[C@H](C)c2cc(NC(=O)OC(C)(C)C)ccc2F)c1Cl [Example 359, tert-Butyl (R)-(3-(1-((3-chloro-6-(2-(2-hydroxypropan-2-yl)pyrimidin-5-yl)-2-methylquinolin-4-yl)amino)ethyl)-4-fluorophenyl)carbamate] | ≤ 25 µM | 
23 | CC(Nc1c(Cl)cnc2ccc(-c3cnc(C(C)(C)O)nc3)cc12)c1ncccc1F (racemic) [Example 171, 2-(5-(3-chloro-4-((1-(3-fluoropyridin-2-yl)ethyl)amino)quinolin-6-yl)pyrimidin-2-yl)propan-2-ol] | ≤ 25 µM | 
24 | Cc1nc2cc(F)c(-c3ccc(=O)[nH]c3)cc2c(N[C@H](C)c2cc(Br)ccc2F)c1Cl [Example 449, (R)-5-(4-((1-(5-bromo-2-fluorophenyl)ethyl)amino)-3-chloro-7-fluoro-2-methylquinolin-6-yl)pyridin-2(1H)-one] | ≤ 25 µM | 
25 | NC1(C(=O)O)CCN(c2ncc(-c3ccc4ncc(Cl)c(N[C@@H](c5ccccc5F)C(F)F)c4c3)cn2)CC1 [Example 75, (S)-4-amino-1-(5-(3-chloro-4-((2,2-difluoro-1-(2-fluorophenyl)ethyl)amino)quinolin-6-yl)pyrimidin-2-yl)piperidine-4-carboxylic acid] | ≤ 25 µM | 
26 | C[C@@H](Nc1c(Cl)cnc2ccc(-c3ccc(N4CCC(CC(=O)O)CC4)nc3)cc12)c1ccccc1F [Example 82, (R)-2-(1-(5-(3-chloro-4-((1-(2-fluorophenyl)ethyl)amino)quinolin-6-yl)pyridin-2-yl)piperidin-4-yl)acetic acid] | ≤ 25 µM | 
27 | CC(Nc1c(Cl)cnc2ccc(-c3cnc(N4CCNC(=O)C4)nc3)cc12)c1nc(N)ccc1F (stereo not shown) [Example 562, 4-(5-(4-((1-(6-amino-3-fluoropyridin-2-yl)ethyl)amino)-3-chloroquinolin-6-yl)pyrimidin-2-yl) piperazin-2-one] | ≤ 25 µM | 
28 | C[C@H](Nc1c(Cl)cnc2ccc(-c3cnc(C(C)(C)O)nc3)cc12)C1CCCCC1 [Example 59, (S)-2-(5-(3-chloro-4-((1-cyclohexylethyl)amino)quinolin-6-yl)pyrimidin-2-yl)propan-2-ol] | ≤ 25 µM | 
29 | C[C@@H](Nc1c(Cl)cnc2ccc(-c3cnc(C(C)(C)O)nc3)cc12)c1cc(N2CCCC2)ccc1F [Example 364, (R)-2-(5-(3-chloro-4-((1-(2-fluoro-5-(pyrrolidin-1-yl)phenyl)ethyl)amino)quinolin-6-yl)pyrimidin-2-yl)propan-2-ol] |  | ≤ 25 µM
30 | CC(Nc1c(Cl)cnc2cc(F)c(-c3cnc(C(C)(C)O)nc3)cc12)c1ccccc1F (single isomer, unassigned) [Example 241, 2-(5-(3-chloro-7-fluoro-4-((1-(2-fluorophenyl)ethyl)amino)quinolin-6-yl)pyrimidin-2-yl)propan-2-ol] |  | ≤ 25 µM
31 | Cc1nc2cc(F)c(-c3ccc(=O)[nH]c3)cc2c(N[C@H](C)c2cc(C#N)ccc2F)c1Cl [Example 450, (R)-3-(1-((3-chloro-7-fluoro-2-methyl-6-(6-oxo-1,6-dihydropyridin-3-yl)quinolin-4-yl)amino)ethyl)-4-fluorobenzonitrile] | ≤ 25 µM | 
